# Results reported in article PMC8384837.
# Numbering of substitutions follows the chain as printed. The list shows a part of the results. At the low end of the ranking the order means little.
# How the values were obtained:
# Conditions in all cases: yeast three-hybrid, YBZ-1, SC-Leu-His + 0.5 mM 3-AT, 4 days
# [1] = target: T1, PUM1 PUF domain R6-IYE N1043I + Q1047E (UniProt Q14671)
# T1 sequence: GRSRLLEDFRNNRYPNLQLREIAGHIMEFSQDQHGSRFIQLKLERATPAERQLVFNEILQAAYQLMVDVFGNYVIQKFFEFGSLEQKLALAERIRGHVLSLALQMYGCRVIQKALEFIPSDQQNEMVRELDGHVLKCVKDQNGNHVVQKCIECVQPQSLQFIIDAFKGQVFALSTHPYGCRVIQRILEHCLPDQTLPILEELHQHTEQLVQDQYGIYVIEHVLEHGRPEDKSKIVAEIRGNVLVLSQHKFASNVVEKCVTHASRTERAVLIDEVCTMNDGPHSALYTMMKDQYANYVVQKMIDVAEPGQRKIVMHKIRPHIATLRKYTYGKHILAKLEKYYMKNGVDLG
# [2] = target: T2, PUM1 PUF domain R6-LFA N1043L + Y1044F + Q1047A (UniProt Q14671)
# T2 sequence: T1 sequence with I216L, Y217F, E220A
# [3] = target: T3, PUM1 PUF domain R6-LFC N1043L + Y1044F + Q1047C (UniProt Q14671)
# T3 sequence: T1 sequence with I216L, Y217F, E220C
# [4] = target: T4, PUM1 PUF domain R6-LFT N1043L + Y1044F + Q1047T (UniProt Q14671)
# T4 sequence: T1 sequence with I216L, Y217F, E220T
# [5] = target: T5, PUM1 PUF domain R6-LWG N1043L + Y1044W + Q1047G (UniProt Q14671)
# T5 sequence: T1 sequence with I216L, Y217W, E220G
# [6] = target: T6, PUM1 PUF domain R6-LYC N1043L + Q1047C (UniProt Q14671)
# T6 sequence: T1 sequence with I216L, E220C
# [7] = target: T7, PUM1 PUF domain R6-LYM N1043L + Q1047M (UniProt Q14671)
# T7 sequence: T1 sequence with I216L, E220M
# [8] = target: T8, PUM1 PUF domain R6-LYS N1043L + Q1047S (UniProt Q14671)
# T8 sequence: T1 sequence with I216L, E220S
# [9] = target: T9, PUM1 PUF domain R6-MFS N1043M + Y1044F + Q1047S (UniProt Q14671)
# T9 sequence: T1 sequence with I216M, Y217F, E220S
# [10] = target: T10, PUM1 PUF domain R6-MYG N1043M + Q1047G (UniProt Q14671)
# T10 sequence: T1 sequence with I216M, E220G
# [11] = target: T11, PUM1 PUF domain R6-MYV N1043M + Q1047V (UniProt Q14671)
# T11 sequence: T1 sequence with I216M, E220V
# [12] = target: T12, PUM1 PUF domain R6-NYL Q1047L (UniProt Q14671)
# T12 sequence: T1 sequence with I216N, E220L
# [13] = target: T13, PUM1 PUF domain R6-RFV N1043R + Y1044F + Q1047V (UniProt Q14671)
# T13 sequence: T1 sequence with I216R, Y217F, E220V
# [14] = target: T14, PUM1 PUF domain R6-RHS N1043R + Y1044H + Q1047S (UniProt Q14671)
# T14 sequence: T1 sequence with I216R, Y217H, E220S
# [15] = target: T15, PUM1 PUF domain R6-RWL N1043R + Y1044W + Q1047L (UniProt Q14671)
# T15 sequence: T1 sequence with I216R, Y217W, E220L
# [16] = target: T16, PUM1 PUF domain R6-RWV N1043R + Y1044W + Q1047V (UniProt Q14671)
# T16 sequence: T1 sequence with I216R, Y217W, E220V
# [17] = target: T17, PUM1 PUF domain R6-RYL N1043R + Q1047L (UniProt Q14671)
# T17 sequence: T1 sequence with I216R, E220L
# [18] = target: T18, PUM1 PUF domain R6-SFA N1043S + Y1044F + Q1047A (UniProt Q14671)
# T18 sequence: T1 sequence with I216S, Y217F, E220A
# [19] = target: T19, PUM1 PUF domain R6-SRD N1043S + Y1044R + Q1047D (UniProt Q14671)
# T19 sequence: T1 sequence with I216S, Y217R, E220D
# [20] = target: T20, PUM1 PUF domain R6-SRQ N1043S + Y1044R (UniProt Q14671)
# T20 sequence: T1 sequence with I216S, Y217R, E220Q
sequence,measurement,setting,value
GGCUAGAACUAGUGGAUCCCCCGGCGCCCGGCGGCUCGAGCCCGGGUAAGUGCAAAUAGUCUGCAUGCCGCCGGGCGCCAUGCCUGCAGGUCGACUCUAGAAAACAUG,binding signal (log2 enrichment (interaction score)),[1],< -6.55
same,binding signal (log2 enrichment (interaction score)),[2],< -8.68
same,binding signal (log2 enrichment (interaction score)),[3],< -7.31
same,binding signal (log2 enrichment (interaction score)),[4],< -7.13
same,binding signal (log2 enrichment (interaction score)),[5],< -8.11
same,binding signal (log2 enrichment (interaction score)),[6],< -7.41
same,binding signal (log2 enrichment (interaction score)),[7],< -6.91
same,binding signal (log2 enrichment (interaction score)),[8],< -7.54
same,binding signal (log2 enrichment (interaction score)),[9],< -6.36
same,binding signal (log2 enrichment (interaction score)),[10],< -7.16
same,binding signal (log2 enrichment (interaction score)),[11],< -6.58
same,binding signal (log2 enrichment (interaction score)),[12],< -6.56
same,binding signal (log2 enrichment (interaction score)),[13],< -7.3
same,binding signal (log2 enrichment (interaction score)),[14],< -7.54
same,binding signal (log2 enrichment (interaction score)),[15],< -6.15
same,binding signal (log2 enrichment (interaction score)),[16],< -6.32
same,binding signal (log2 enrichment (interaction score)),[17],< -7.61
same,binding signal (log2 enrichment (interaction score)),[18],< -7.78
same,binding signal (log2 enrichment (interaction score)),[19],< -7.15
same,binding signal (log2 enrichment (interaction score)),[20],< -7.81

# An excerpt of these results, with bars between the fields.
sequence | measurement | setting | value
GGCUAGAACUAGUGGAUCCCCCGGCGCCCGGCGGCUCGAGCCCGGGUAAGUGCAAAUAGUCUGCAUGCCGCCGGGCGCCAUGCCUGCAGGUCGACUCUAGAAAACAUG | binding signal (log2 enrichment (interaction score)) | [3] | < -7.31
same | binding signal (log2 enrichment (interaction score)) | [4] | < -7.13
same | binding signal (log2 enrichment (interaction score)) | [5] | < -8.11
same | binding signal (log2 enrichment (interaction score)) | [6] | < -7.41
same | binding signal (log2 enrichment (interaction score)) | [7] | < -6.91
